## Library screening results

By UniProt entry, the sequences of proteins in these tests, tags left out.
UniProt E9BF75, entry or part of it: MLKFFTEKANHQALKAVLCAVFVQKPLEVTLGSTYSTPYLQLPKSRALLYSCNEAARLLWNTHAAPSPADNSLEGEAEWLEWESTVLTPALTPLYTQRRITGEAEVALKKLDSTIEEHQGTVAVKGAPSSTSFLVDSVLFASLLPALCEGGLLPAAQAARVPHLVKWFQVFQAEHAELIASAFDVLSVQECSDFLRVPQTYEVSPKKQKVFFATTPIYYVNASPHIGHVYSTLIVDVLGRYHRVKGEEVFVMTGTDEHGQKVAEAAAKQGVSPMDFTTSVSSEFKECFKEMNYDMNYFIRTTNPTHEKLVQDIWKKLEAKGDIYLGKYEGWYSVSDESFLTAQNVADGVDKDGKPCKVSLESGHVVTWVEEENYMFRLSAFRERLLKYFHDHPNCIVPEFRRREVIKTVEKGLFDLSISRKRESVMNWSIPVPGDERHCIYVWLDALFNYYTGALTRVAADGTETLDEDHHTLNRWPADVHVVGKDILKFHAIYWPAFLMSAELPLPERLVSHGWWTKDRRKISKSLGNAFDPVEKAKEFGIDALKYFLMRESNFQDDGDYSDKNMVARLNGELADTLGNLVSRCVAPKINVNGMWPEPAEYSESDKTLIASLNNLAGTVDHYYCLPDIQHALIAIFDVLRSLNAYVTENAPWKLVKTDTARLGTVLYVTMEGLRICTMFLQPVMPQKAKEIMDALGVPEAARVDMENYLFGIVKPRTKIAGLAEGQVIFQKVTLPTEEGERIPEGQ

All values are in %. How 0% and 100% were set is not recorded. Most values in the screen are low, and negative values occur. Compounds were drawn at random from those tested, without regard to their results. A dash means the value is not listed here; it may have been measured.

LdMetRS: 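Methionyl-tRNA synthetase (putative), Leishmania donovani (UniProt E9BF75). Primary screen of methionyl-tRNA synthetase; the read-out is not stated. The test concentration is not given. Values are per cent inhibition. About 68,000 compounds were tested under these conditions; 0.035% (about 24) showed 50% or more at least once.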
Mtb heat-shock: 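Assay on Mycobacterium tuberculosis, filed only as a heat shock assay from Cornell; the read-out is not stated. The concentration is filed as 10 mM, unlikely as a test dose, so the dose is not known. The record gives no direction; compounds that gave an IC50 in retests scored well above the rest, so higher reads as stronger inhibition. Of about 69,000 compounds tested this way, about 930 (1.4%) reached 50% or more in at least one test.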

compound	LdMetRS	Mtb heat-shock
NC(=O)Cn1ccnc1C1CCCN(Cc2nc3ccccc3s2)C1 (centres unmarked)	13.17%	-3.637%
COCCC(=O)N1CCCC1c1nccnc1Nc1ncccn1 (centres unmarked)	10.59%	-20.65%
O=C1NCCN1CCNCC1(O)CCCN(CCC2CCCCC2)C1=O (centres unmarked)	13.38%	-15.47%
CCN(CC)S(=O)(=O)c1ccc(CNC(=O)N2CCCCCC2)cc1	18.57%	-30.37%
CN(Cc1nnc(C2CC2)n1C)S(=O)(=O)c1ccc(F)c(C#N)c1	16.91%	4.261%
Cc1cc(C)c2cc(CNC3CCCCC3)c3nn(C)c(=O)n3c2c1	18.64%	-2.011%
CN(C)C(=O)c1ccc2ccc(N3CCN(CC4CC4)CC3)n2c1	20.17%	-11.68%
CC(C)c1ccc(CS(=O)(=O)CC(=O)NCc2ccccc2F)cc1	10.66%	-26.84%
Cc1cccc(Cc2cc(C)nc(C3CCCNC3)c2)c1 (centres unmarked)	18.73%	-6.804%
CCCc1ccc2oc(C(=O)N3CCCN(C)CC3)c(C)c2c1	17.98%	3.501%
Cc1ccsc1C(=O)N1CC[C@@H](N(C)C)[C@@H]1Cc1cnn(C)c1.O=C(O)C(F)(F)F	-	-5.648%
CCn1cncc1Cn1cccc(C(F)(F)F)c1=O	3.623%	-4.322%
O=C(NC1CCN(c2cccc(C(F)(F)F)n2)CC1)C1CC1	7.292%	25.26%
Cc1cc(C(=O)CN2C(=O)c3ccccc3CS2(=O)=O)c(C)[nH]1	2.174%	-8.611%
Cc1cnn(CC2CCCN2CC(=O)Nc2cc(C(C)(C)C)no2)c1 (centres unmarked)	12.89%	73.93%
CCOCCC(=O)NC1(c2cccc(Br)c2)CC1	13.59%	2.557%
Cc1cc(C(=O)N2CCn3nc(C(=O)NC4CC4)cc3C2)nc(C)n1	16.45%	-7.29%
Clc1ccc(Cc2nc(CNCCn3cccn3)cs2)cc1	23.74%	102.1%
CN(C)CC(=O)N1CCCC2(CCN(c3ccccc3)C2=O)C1 (centres unmarked)	3.922%	-
CC(C)NC(=O)CC1CC2(CCN(CC3CC3)CC2)Oc2ccccc21 (centres unmarked)	3.361%	-
[H][C@@]12CS(=O)(=O)C[C@]1([H])N(C(=O)CCn1cc(Cl)cn1)CCN2C(=O)CC	-	15.47%
CC(C)N1CCOC[C@H]1c1nc(C(C)(C)C)c[nH]1	9.831%	-28.08%
CC(O)CC(C)(C)CNC(=O)NCc1cccc(-n2cncn2)c1 (centres unmarked)	9.294%	-1.945%
CN1CCN(Cc2cn3c(n2)CN(C(=O)c2cccn2C)CC3)CC1.O=C(O)C(F)(F)F.O=C(O)C(F)(F)F	-	-5.303%
CC(C)CN(C)Cc1c[nH]nc1-c1ccc(F)cc1F	11.39%	-17.12%
CCn1c(CN(C)C)nnc1C1CCN(c2ccnc(C)c2)CC1	9.735%	105.5%
Cc1cc(OCC(O)c2nc3c([nH]2)CC(C)(C)CNC3=O)ccc1Cl (centres unmarked)	15.97%	-1.435%
Cn1ccc(CS(=O)(=O)Cc2ccccc2)cc1=O	14.84%	1.039%
CC(C)c1nc(S(=O)(=O)N(C)c2ccc(F)cc2)c[nH]1	9.408%	-3.449%
O=C(C(O)c1ccccc1Cl)N1CCCN(Cc2cccnc2)CC1 (centres unmarked)	6.529%	28.95%
Cc1noc(C)c1NC(=O)Cn1cc(Br)ccc1=O	11.56%	-6.665%
CC(c1ccc(F)cc1)N1CCN(Cc2nccn2C)CC1 (centres unmarked)	20.48%	-10.33%
CSCCC(NC(=O)c1ccc2ccccc2n1)C(=O)NC1CC1 (centres unmarked)	4.011%	7.181%
COc1cc(CNCC(C)O)cc(Cl)c1OCc1ccc(C)cc1 (centres unmarked)	-3.069%	-
CCCc1nc(N(C)Cc2cnc(NC)nc2)c2cnn(C)c2n1	0%	-26.92%
O=C(O)C(F)(F)F.O=C(O)C(F)(F)F.OCCN1CC2(CCN(CC3CC3)CC2)c2ccccc21	-	-22.04%
Cc1nccn1CCCNc1ccc(Cl)c(C#N)n1	12.13%	12.63%
O=C1CCC(=O)N1CCn1nnc(-c2ccc(Br)cc2)n1	6.425%	-30.79%
Cc1ccc(NC(=O)C2CSCN2C(=O)c2cnsn2)c(C)c1 (centres unmarked)	12.72%	-4.297%
Cc1ccc(CN2CCc3ncnc(-c4cccnc4)c3CC2)o1	2.929%	-
CN(C)CC(=O)N1CCN(c2cc(N3CCCC3CO)ncn2)CC1 (centres unmarked)	9.777%	-1.72%
Cc1ccc(C(C(=O)O)N2CCCN(Cc3ccccn3)CC2)c(F)c1 (centres unmarked)	15.38%	1.348%
Cc1nc(N2CCCC2)nc2c1CCN(C(=O)C1CCC1)CC2	7.205%	-13.19%
CN(CCN1CCCCCC1)C(=O)c1c(O)cccc1O	8.193%	-0.7175%
CCOc1ccc(Cl)c(C(=O)NCc2ccc(C(=O)NC)cc2)n1	11.66%	12.35%
Cc1n[nH]c2c1C(c1cnn(C)c1)SCC(=O)N2 (centres unmarked)	16.18%	27.36%
N#Cc1cccc(NS(=O)(=O)c2ccc(C(=O)O)cc2F)c1	15.95%	-3.903%
CNC(=O)C1(C)CN(S(=O)(=O)c2cccc(OC)c2)CCO1 (centres unmarked)	10.47%	-12.03%
CC(CNC(=O)Nc1ccc(F)cc1Br)N1CCOCC1 (centres unmarked)	6.812%	-32.37%
COCC(=O)N1CCN(C)C(=O)C(Cc2ccccc2-c2cccs2)C1 (centres unmarked)	25.32%	-8.923%
COc1cccc(S(=O)(=O)N2CCOC(C)(C(N)=O)C2)c1 (centres unmarked)	0%	-2.523%
O=C(O)C(F)(F)F.[H][C@@]12CCN(c3nnc(C)s3)[C@]1([H])CC[C@@H](c1nc(C)no1)O2	-	26.34%
Cl.[H][C@]12CN(C(=O)NCC3CCCCC3)[C@]([H])(CN1)C2	-	-1.788%
CCn1ncc2c1CCCC2NCc1csc(COC)n1 (centres unmarked)	12.32%	18.62%
CCC[C@H]1CN(S(C)(=O)=O)C[C@@H]1NC(=O)Cc1ccc(F)cc1C	21.25%	4.49%
Cn1cc(C2CCCN2C(=O)COC2CCCCC2)cn1 (centres unmarked)	8.042%	12.18%
O=C(O)C(F)(F)F.O=C(c1ccncc1)N1CCc2ncnc(C3CC3)c2CC1	-	-0.1229%
O=c1cc(Cn2ccnc2)nc2n1CCCN(Cc1ccc(F)cc1)C2	4.899%	-28.17%
CC(=O)Nc1nc(CN2CCOC(Cn3cc(C)cn3)C2)cs1 (centres unmarked)	10.42%	8.882%
Cc1cc(CN(C2CC2)C(C)C(C)C)no1 (centres unmarked)	15.46%	7.401%
O=C(NCC1CC1)[C@@H]1CC[C@@H]2[C@@H](CCN2CCOCc2ccccc2)O1	14.57%	-
O=C(O)C(F)(F)F.[H][C@@]12COC[C@]1([H])[C@@H](OCC(=O)N(C)C)CN2Cc1cccc(C#N)c1	-	-18.12%
CC[C@H]1CN(C(=O)C(C)(C)C)CC[C@H]1CC(=O)O	13.19%	-1.598%
CCc1nnc(CNCC2CCN(CC(O)c3ccccc3)CC2)o1 (centres unmarked)	8.333%	-6.183%
C/C=C(/C)C(=O)NS(=O)(=O)c1ccc(C(F)(F)F)cn1	6.72%	6.712%
COCCNC(=O)C1(CCCc2cccnc2)CCCN1C (centres unmarked)	10.48%	-9.557%
CC(C)c1nc(CN(C)C2CCN(CCS(C)(=O)=O)C2)no1 (centres unmarked)	9.036%	-6.047%
Cc1ccc(CN(CCCn2ccnc2)Cc2cnc(N(C)C)nc2)s1.O=C(O)CC(O)(CC(=O)O)C(=O)O	-	-30.9%
CC(C)(C)Nc1nc(-c2cccnc2)c(-c2ccnc(NCCO)n2)s1	13.83%	-11.38%
COCC(=O)NC1CC2(CCN(CCF)CC2)Oc2ccccc21.O=C(O)C(F)(F)F (centres unmarked)	-	-15.18%
Cc1c(CCC(=O)Nc2ccc(Br)cn2)cnn1C	8.287%	-1.292%
CC(C)[C@@H]1CN(Cc2ccccn2)C[C@H]1NS(=O)(=O)N(C)C	8.871%	-11.39%
Cc1nc(CN2CCC3(CC2)NC(=O)CC3c2cccnc2)cs1 (centres unmarked)	14.42%	8.605%

Data taken from ChEMBL document CHEMBL3988442, “University of Dundee, Small-Polar-MMV Screening Library” (2021).